Screening data

The results are deposited in PubChem (AID1159506; NCATS, 2015).

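Genome-wide siRNA knockdown in TC32 Ewing sarcoma cells, comparing luciferase light from an NR0B1-promoter reporter with a CMV-promoter reporter 48 hours after transfection. Each siRNA was applied at 20 nM. A z-score of the log NR0B1-over-CMV signal, less the median of siRNAs with the same seed; more negative means a stronger specific loss of the NR0B1 reporter.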

This is part of the screen; most of the strongest results are not listed here. Sequences are the guide (antisense) strand, without overhang.

siRNA	target gene	seed-corrected z-score
UUCAUAUUCGAGAUCAUGG	CNGA3	1.685
CAUAGUAAGGCCAAGGGCC	ACSM2B	0.397
UUUCUUCCUCGAGAAGCUG	FAM207A	0.652
UAUAAUCCCUGUAAGGUAG	HMGCR	-0.0451
AUCCUUGAGAUGAAAUUUC	GTF2A1	0.2458
UGUCUUUGGACGAACAUCU	XAF1	-1.244
UCGGGUAGCAUCAUGAGAG	LOR	1.061
UGACAGAUAAGGAACCUGC	BIRC5	-0.1585
UCGAAAUAUAUCACGAUGG	PDE11A	-0.256
AUCUUGACCACCAGUCCCU	NTRK1	-0.4643
UCCAAUGUAAUUUAGCAGC	TMEM144	0.3425
UACGUUGUCAUGCAGGUGC	ADAM8	-1.819
UAAGUGUCGGACAAAAUCU	HAUS4	0.1124
UGUCCAUAAAGAAACCGGG	ERCC6L2	-1.052
AAAGAAUUCAGUGCAUUCC	SSU72P8	-0.4434
UCAAGUGUCACUGACAUCG	INPP4B	0.2948
UUUCGAGCAGGAGAUUUCC	PIKFYVE	-1.565
UAACUGGUAGUAAUGUUGA	NUTF2	0.8045
UGGGCUUAAGCUGAGGUCU	PRRT2	-0.2936
UGAUCAUUCGGGUCAACAC	SMARCD1	-0.8548
UGUCAUCCAAGCUUCUUCU	ZNF22	-0.7595
UUCUCUUUCCCGGACAUUG	HMGB3P22	0.4379
AUUGGUGUUAGACACGUGG	KRT79	0.3189
UAAGACAAAAGAACUGAUG	TCTA	0.7523
AGUUUAGAUCGCUUUAUCU	ASCC3	-0.5723
AUGGUAGUCAGAUCAGUGU	LRRC15	0.2938
AAAUCUAAUGGUCUUACUC	OR2AK2	0.07809
UAUUUUUGAGGAUCUGUGG	FENDRR	1.48
AAGUCUUUCGGGUCACAGC	CFC1	0.02874
UUCCUAGCACUUGAUAAUC	ZW10	-1.387
UCACAAAUCACUCUAAUCU	LRRC55	0.5764
UACGGUCAGGUACAGGUCG	DCAF15	0.05062
UAUCUAUACGCACUCUCUG	ZNF806	0.1384
UUAAUGUUGCCGUCAGAGC	HSBP1L1	-0.2222
UUUGGGUCAGUGCAUUGGU	OR3A4P	0.2623
UCAUCUUGGAUUUCCAGCC	LOC643373	-0.3176
UUUUAGUCUCUUAGUAACC	GPAT3	-0.4304
UUUGCUCUCAAAGACAUCA	NUDT11	-0.6482
UCUUGUGAAAAAGGUAACC	UGT2B10	-0.5244
UUCAUGUCUAGAUACGACG	FOCAD	-0.2537
CUCCUGAUAGGGAACGUGG	OTOS	1.085
UGCUUUGUGAACAUGAACU	CX3CR1	-1.476
ACAUAUUUCAGUGAAGUCG	ASB17	1.83
UUAAUGUGGGACAAUUUCU	ELL3	0.1274
UUUGCUGUACCGGCAAUCC	CABIN1	1.017
UGUACCAUCAGGAGGAUGC	MPI	-0.2197
UACCAUUCUGAUGUAUUCC	ITCH	1.036
AUGUCAUCAAGAUUCGUUG	HELQ	0.3845
UAACUGCUGAGGUAAGACC	PTCRA	-0.8978
UAUGUACAAAGGCAUUCCA	FAM90A3P	-1.588
UCAUGAUCUAUAUUCCUUG	OOSP2	-0.6748
AUUCUCACAUCUUUGGUCG	SEH1L	0.34
UGCUCAAUCAGGUCACUCU	CSNK2B	-0.6047
UAGCAAGACAGUCUUGUCG	NUDT17	0.7352
UGAUUCAACAACAGUACCG	ZNF385B	1.132
UCCUGAUCUAUCGCUGGGC	IFITM2	0.0899
UAGCCAAUCACAAGCUUCC	DLC1	0.1415
UGAAGUACCAGUCACCAGC	ADAM15	0.8067
AUCGGCAUUACUGUACUUG	ZFHX3	0.1026
UUACUGGAUCGCUUAGCCC	HNF4G	-1.071
AAUCCUUAAAAAUGCCUGC	LSM6	0.2629
UUCCUGCGCACUUCGUAGC	H1FNT	-0.2231
UCGUUUCCACUGUUCAUCC	PPIP5K2	-1.908
UUCUGGAACCUUUAGGAUG	PDCD1LG2	0.01072
AUAGGUGUCAGGGAUCUCA	PRR15L	-0.09962
UAGGUAUACCUCAAACUCC	IL6	0.01282
UUUGUCAUGUUUGCAGACC	SPIN2B	-0.5984
UAUAUUCAAUGUUUCCAUC	GTPBP2	0.9039
UUCCAGUCAAUCCACAUCU	CDR1	0.2091
UCUACAAUUACUUUACACC	PCDHGB7	0.0001691
UUUGAUAGUAUGUGCGUGG	HIVEP1	-1.475
AAAGAAAGAAUGGCCAAAG	LOC151174	-1.052
UUAAUUAGGCUGGAGUUGC	ZNF792	-0.7768
AAUGUUGACCUUGUAAGCG	S1PR3	-0.2706
UAUGUAACACGACCAAAUC	CENPVP1	-0.2212
UCUGAACGAAUCAAAUUGC	TRIP12	-0.1686

Once more, the final 9:

- UAUAUUCAAUGUUUCCAUC against GTPBP2 : seed-corrected z-score 0.9039
- UUCCAGUCAAUCCACAUCU against CDR1 : seed-corrected z-score 0.2091
- UCUACAAUUACUUUACACC against PCDHGB7 : seed-corrected z-score 0.0001691
- UUUGAUAGUAUGUGCGUGG against HIVEP1 : seed-corrected z-score -1.475
- AAAGAAAGAAUGGCCAAAG against LOC151174 : seed-corrected z-score -1.052
- UUAAUUAGGCUGGAGUUGC against ZNF792 : seed-corrected z-score -0.7768
- AAUGUUGACCUUGUAAGCG against S1PR3 : seed-corrected z-score -0.2706
- UAUGUAACACGACCAAAUC against CENPVP1 : seed-corrected z-score -0.2212
- UCUGAACGAAUCAAAUUGC against TRIP12 : seed-corrected z-score -0.1686